{"source": "PubChem BioAssay AID1259308 (NCATS, 2017)", "test": "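Knock-downs that increase output of a recombinant reporter protein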 (primary screen)", "system": "human HEK293 embryonic kidney cells stably expressing firefly luciferase (HEK-CMV-Luc2-Hygro)", "reagents": "single siRNA against human genes, 0.8 pmol siRNA per well", "timing": "72 h", "detection": "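Reporter luminescence and viable-cell signal on separate replicate plates, given as percent of non-targeting control and median/MAD z-scores, plus per-cell luciferase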", "reading the numbers": "total luciferase, z-score and total luciferase, % of control: higher = more reporter protein produced", "hit rule": "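Active when the median/MAD z-score for overall luciferase is greater than 3; a gene was taken forward for validation with new siRNAs if at least two of its three siRNAs passed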", "meaning of the calls": "active = raised luciferase; inactive = no rise", "note": "Here is an unselected part of about 59,000 deposited reagents. About 1,510 of all reagents (2.6%) were called active. 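Calls use total luciferase alone and ignore viability, so some active siRNAs may act by altering cell number.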 Entries without a mark were called inactive. Not all columns of the deposit are shown."}
{"target gene": "CBL (Cbl proto-oncogene)", "PubChem SID": "SID160737265", "total luciferase, z-score": 0.172, "total luciferase, % of control": 85.3}
{"target gene": "CBL (Cbl proto-oncogene)", "PubChem SID": "SID160737276", "total luciferase, z-score": -1.35, "total luciferase, % of control": 55.1}
{"target gene": "CBL (Cbl proto-oncogene)", "PubChem SID": "SID160737287", "total luciferase, z-score": -0.746, "total luciferase, % of control": 67.1}
{"target gene": "CAMTA2 (calmodulin binding transcription activator 2)", "PubChem SID": "SID160735504", "total luciferase, z-score": 1.04, "total luciferase, % of control": 103}
{"target gene": "CAMTA2 (calmodulin binding transcription activator 2)", "PubChem SID": "SID160735505", "total luciferase, z-score": -1.42, "total luciferase, % of control": 53.6}
{"target gene": "CAMTA2 (calmodulin binding transcription activator 2)", "PubChem SID": "SID160735506", "total luciferase, z-score": -1.93, "total luciferase, % of control": 43.5}
{"target gene": "MANBA (mannosidase beta)", "PubChem SID": "SID160776944", "total luciferase, z-score": 0.121, "total luciferase, % of control": 84.3}
{"target gene": "MANBA (mannosidase beta)", "PubChem SID": "SID160776945", "total luciferase, z-score": 0.216, "total luciferase, % of control": 86.2}
{"target gene": "MANBA (mannosidase beta)", "PubChem SID": "SID160776946", "total luciferase, z-score": -0.408, "total luciferase, % of control": 73.8}
{"target gene": "SYPL2 (synaptophysin like 2)", "PubChem SID": "SID160763391", "total luciferase, z-score": 0.936, "total luciferase, % of control": 100}
{"target gene": "SYPL2 (synaptophysin like 2)", "PubChem SID": "SID160763392", "total luciferase, z-score": -0.0632, "total luciferase, % of control": 80.6}
{"target gene": "SYPL2 (synaptophysin like 2)", "PubChem SID": "SID160763393", "total luciferase, z-score": 0.874, "total luciferase, % of control": 99.3}

Continued; the last 4 above are carried over.
{"target gene": "MANBA (mannosidase beta)", "PubChem SID": "SID160776946", "total luciferase, z-score": -0.408, "total luciferase, % of control": 73.8}
{"target gene": "SYPL2 (synaptophysin like 2)", "PubChem SID": "SID160763391", "total luciferase, z-score": 0.936, "total luciferase, % of control": 100}
{"target gene": "SYPL2 (synaptophysin like 2)", "PubChem SID": "SID160763392", "total luciferase, z-score": -0.0632, "total luciferase, % of control": 80.6}
{"target gene": "SYPL2 (synaptophysin like 2)", "PubChem SID": "SID160763393", "total luciferase, z-score": 0.874, "total luciferase, % of control": 99.3}
{"target gene": "RPL18A (ribosomal protein L18a)", "PubChem SID": "SID160716056", "total luciferase, z-score": -2.67, "total luciferase, % of control": 28.7}
{"target gene": "RPL18A (ribosomal protein L18a)", "PubChem SID": "SID160716057", "total luciferase, z-score": -2.37, "total luciferase, % of control": 34.7}
{"target gene": "RPL18A (ribosomal protein L18a)", "PubChem SID": "SID160716058", "total luciferase, z-score": -2.97, "total luciferase, % of control": 22.8}
{"target gene": "ALG12 (ALG12 alpha-1,6-mannosyltransferase)", "PubChem SID": "SID160748620", "total luciferase, z-score": 1.12, "total luciferase, % of control": 104}
{"target gene": "ALG12 (ALG12 alpha-1,6-mannosyltransferase)", "PubChem SID": "SID160748621", "total luciferase, z-score": -1.48, "total luciferase, % of control": 52.4}
{"target gene": "ALG12 (ALG12 alpha-1,6-mannosyltransferase)", "PubChem SID": "SID160748622", "total luciferase, z-score": -0.617, "total luciferase, % of control": 69.6}
{"target gene": "RASL10A (RAS like family 10 member A)", "PubChem SID": "SID160728914", "total luciferase, z-score": -0.904, "total luciferase, % of control": 63.9}
{"target gene": "RASL10A (RAS like family 10 member A)", "PubChem SID": "SID160728915", "total luciferase, z-score": -0.039, "total luciferase, % of control": 81.1}
{"target gene": "RASL10A (RAS like family 10 member A)", "PubChem SID": "SID160728916", "total luciferase, z-score": 0.574, "total luciferase, % of control": 93.3}
{"target gene": "CES1 (carboxylesterase 1)", "PubChem SID": "SID160741933", "total luciferase, z-score": 0.383, "total luciferase, % of control": 89.5}
{"target gene": "CES1 (carboxylesterase 1)", "PubChem SID": "SID160741942", "total luciferase, z-score": 0.166, "total luciferase, % of control": 85.2}
{"target gene": "CES1 (carboxylesterase 1)", "PubChem SID": "SID160741946", "total luciferase, z-score": -0.758, "total luciferase, % of control": 66.8}
{"target gene": "HARS2 (histidyl-tRNA synthetase 2, mitochondrial)", "PubChem SID": "SID160736292", "total luciferase, z-score": -0.53, "total luciferase, % of control": 71.3}
{"target gene": "HARS2 (histidyl-tRNA synthetase 2, mitochondrial)", "PubChem SID": "SID160736293", "total luciferase, z-score": 0.318, "total luciferase, % of control": 88.2}
{"target gene": "HARS2 (histidyl-tRNA synthetase 2, mitochondrial)", "PubChem SID": "SID160736294", "total luciferase, z-score": 1.71, "total luciferase, % of control": 116}
{"target gene": "RRP36 (ribosomal RNA processing 36)", "PubChem SID": "SID160753394", "total luciferase, z-score": -1.12, "total luciferase, % of control": 59.7}
{"target gene": "RRP36 (ribosomal RNA processing 36)", "PubChem SID": "SID160753395", "total luciferase, z-score": -0.569, "total luciferase, % of control": 70.6}
{"target gene": "RRP36 (ribosomal RNA processing 36)", "PubChem SID": "SID160753396", "total luciferase, z-score": -0.931, "total luciferase, % of control": 63.4}
{"target gene": "FMO1 (flavin containing dimethylaniline monoxygenase 1)", "PubChem SID": "SID160766673", "total luciferase, z-score": 0.614, "total luciferase, % of control": 94.1}
{"target gene": "FMO1 (flavin containing dimethylaniline monoxygenase 1)", "PubChem SID": "SID160766680", "total luciferase, z-score": -0.0799, "total luciferase, % of control": 80.3}
{"target gene": "FMO1 (flavin containing dimethylaniline monoxygenase 1)", "PubChem SID": "SID160766689", "total luciferase, z-score": 0.222, "total luciferase, % of control": 86.3}
